Positions count from the first letter of the chain named. These are yes or no findings as the source states them, for the method shown. Some results given as binding are weak or reduced against the parent protein; the word gives no strength. Sequences can lack the tags named with a protein.

Sequences of proteins named here, by UniProt entry; tags and fusion partners are left off. A change or cut given only in a name is not applied to a line headed by its entry.
UniProt P02454: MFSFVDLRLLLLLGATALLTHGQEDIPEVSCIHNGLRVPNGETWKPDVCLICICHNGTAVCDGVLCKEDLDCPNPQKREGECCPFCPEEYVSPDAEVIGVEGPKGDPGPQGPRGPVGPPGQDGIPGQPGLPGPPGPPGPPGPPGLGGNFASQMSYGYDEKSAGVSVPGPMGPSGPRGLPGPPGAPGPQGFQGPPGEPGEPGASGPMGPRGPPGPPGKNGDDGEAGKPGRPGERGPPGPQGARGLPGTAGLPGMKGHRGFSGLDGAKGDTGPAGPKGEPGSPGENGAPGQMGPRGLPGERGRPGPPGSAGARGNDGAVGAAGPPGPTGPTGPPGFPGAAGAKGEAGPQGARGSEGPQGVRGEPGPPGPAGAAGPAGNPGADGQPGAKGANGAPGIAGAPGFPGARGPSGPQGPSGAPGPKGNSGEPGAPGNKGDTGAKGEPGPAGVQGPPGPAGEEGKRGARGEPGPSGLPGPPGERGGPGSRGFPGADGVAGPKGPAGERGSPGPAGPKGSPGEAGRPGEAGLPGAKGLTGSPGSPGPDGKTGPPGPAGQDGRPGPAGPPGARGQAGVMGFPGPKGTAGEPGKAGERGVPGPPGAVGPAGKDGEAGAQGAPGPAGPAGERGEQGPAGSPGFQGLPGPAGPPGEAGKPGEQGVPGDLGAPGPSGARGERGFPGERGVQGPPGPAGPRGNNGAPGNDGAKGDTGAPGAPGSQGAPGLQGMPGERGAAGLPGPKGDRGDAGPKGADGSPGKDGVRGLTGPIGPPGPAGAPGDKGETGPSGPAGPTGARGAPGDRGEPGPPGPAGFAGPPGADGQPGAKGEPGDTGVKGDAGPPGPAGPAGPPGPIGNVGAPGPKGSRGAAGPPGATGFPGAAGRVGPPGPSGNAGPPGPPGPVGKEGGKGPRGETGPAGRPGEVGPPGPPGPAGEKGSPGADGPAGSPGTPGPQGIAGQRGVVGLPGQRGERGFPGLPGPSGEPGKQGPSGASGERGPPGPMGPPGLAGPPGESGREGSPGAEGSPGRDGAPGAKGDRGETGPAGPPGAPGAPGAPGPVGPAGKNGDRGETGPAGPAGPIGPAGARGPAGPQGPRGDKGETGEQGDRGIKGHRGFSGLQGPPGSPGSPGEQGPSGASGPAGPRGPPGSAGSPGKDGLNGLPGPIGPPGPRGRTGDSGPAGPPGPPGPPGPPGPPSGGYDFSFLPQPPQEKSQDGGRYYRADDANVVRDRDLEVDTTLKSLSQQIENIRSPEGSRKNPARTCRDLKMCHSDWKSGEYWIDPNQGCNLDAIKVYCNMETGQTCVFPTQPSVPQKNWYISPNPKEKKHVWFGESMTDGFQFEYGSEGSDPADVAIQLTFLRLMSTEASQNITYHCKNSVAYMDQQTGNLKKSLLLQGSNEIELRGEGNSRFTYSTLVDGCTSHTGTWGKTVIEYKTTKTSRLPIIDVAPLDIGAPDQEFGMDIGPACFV

The target in the test is Collagen I (Gibco), coated on 96-well plates (UniProt P02454). Briefly: ELISA; Collagen I (Gibco) coated 96-well plates; LAIR-fusion proteins in PBSTA (PBS, 0.1% BSA, 0.05% Tween-20) for 4 h at room temperature; detected with HRP-conjugated polyclonal anti-6xHis; both purified.

B1: LAIR-his (domain or fragment)
chain: QEGSLPDITIFPNSSLMISQGTFVTVVCSYSDKHDLYNMVRLEKDGSTFMEKSTEPYKTEDEFEIGPVNETITGHYSCIYSKGITWSERSKTLELKVIKENVIQTPAPGPTSDTSWLKTYSIY
B1: the binding result is reported as “binds”.

B2: LAIRx-his (domain or fragment)
chain: B1 chain with R41A, E43A
As for B2, the binding result is “no binding”.

For the origin of these results see publication PMC8748612, “Maximizing response to intratumoral immunotherapy in mice by tuning local retention” (Nature Communications, 2022).
